Some results were stated once for a whole list of compounds, not compound by compound. At least one structure is not confirmed: it was looked up by name or label, or the drawing left a doubt.
Test system: Mycobacterium tuberculosis H37Rv
Assay: Mycobacterium tuberculosis H37Rv Inhibition Assay (Whole Cell Assay)
Type: cell-based
Conditions: H37Rv strain (ATCC25618), Middlebrook 7H9, six days at 37° C., resazurin fluorescence after 48 hours

CCc1ccc([C@H]2C[C@@H](C(F)(F)F)n3ncc(C(=O)NCc4ccco4)c3N2)cc1 (relative stereo) [Example 7, Cis-(4-ethylphenyl)-N-(2-furanylmethyl)-7-(trifluoromethyl)-4,5,6,7-tetrahydropyrazolo[1,5-a]pyrimidine-3-carboxamide]
MIC value: ≤ 1 µM
